Source: article PMC5393896
Results are given in words; binding and its absence hold for the method and conditions named. In cells and extracts the contact can be indirect. Here binding means that the protein was enriched with, or labelled near, the bait; the list need not be complete.

Amino acid sequences for entries named in this document (tags omitted).
UniProt P05453: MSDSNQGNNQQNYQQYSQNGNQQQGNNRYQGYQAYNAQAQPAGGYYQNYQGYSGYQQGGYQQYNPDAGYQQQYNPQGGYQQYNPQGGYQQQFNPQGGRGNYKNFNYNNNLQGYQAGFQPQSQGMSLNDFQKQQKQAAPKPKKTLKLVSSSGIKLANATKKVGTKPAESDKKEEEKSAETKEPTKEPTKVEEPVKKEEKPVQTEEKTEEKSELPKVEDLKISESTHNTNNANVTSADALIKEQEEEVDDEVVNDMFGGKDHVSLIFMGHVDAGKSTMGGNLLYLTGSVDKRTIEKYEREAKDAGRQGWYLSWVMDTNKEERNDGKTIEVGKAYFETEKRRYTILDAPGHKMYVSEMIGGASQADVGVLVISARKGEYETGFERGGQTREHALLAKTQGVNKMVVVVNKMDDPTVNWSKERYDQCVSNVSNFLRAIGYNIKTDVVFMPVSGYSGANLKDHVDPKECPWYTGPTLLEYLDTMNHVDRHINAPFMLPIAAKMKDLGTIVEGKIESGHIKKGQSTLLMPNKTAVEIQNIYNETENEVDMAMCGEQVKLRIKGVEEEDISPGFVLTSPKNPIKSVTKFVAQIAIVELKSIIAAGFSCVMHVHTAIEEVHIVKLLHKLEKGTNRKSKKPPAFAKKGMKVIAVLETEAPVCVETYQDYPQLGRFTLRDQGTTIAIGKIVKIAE

B1: Sti1 (protein, UniProt P15705 1-589)
chain: MSLTADEYKQQGNAAFTAKDYDKAIELFTKAIEVSETPNHVLYSNRSACYTSLKKFSDALNDANECVKINPSWSKGYNRLGAAHLGLGDLDEAESNYKKALELDASNKAAKEGLDQVHRTQQARQAQPDLGLTQLFADPNLIENLKKNPKTSEMMKDPQLVAKLIGYKQNPQAIGQDLFTDPRLMTIMATLMGVDLNMDDINQSNSMPKEPETSKSTEQKKDAEPQSDSTTSKENSSKAPQKEESKESEPMEVDEDDSKIEADKEKAEGNKFYKARQFDEAIEHYNKAWELHKDITYLNNRAAAEYEKGEYETAISTLNDAVEQGREMRADYKVISKSFARIGNAYHKLGDLKKTIEYYQKSLTEHRTADILTKLRNAEKELKKAEAEAYVNPEKAEEARLEGKEYFTKSDWPNAVKAYTEMIKRAPEDARGYSNRAAALAKLMSFPEAIADCNKAIEKDPNFVRAYIRKATAQIAVKEYASALETLDAARTKDAEVNNGSSAREIDQLYYKASQQRFQPGTSNETPEETYQRAMKDPEVAAIMQDPVMQSILQQAQQNPAALQEHMKNPEVFKKIQTLIAAGIIRTGR
B2: Crn1 (protein, UniProt Q06440 1-651)
chain: MSGKFVRASKYRHVFGQAAKKELQYEKLKVTNNAWDSNLLKTNGKFIAVNWNASGGGAFAVIPIEEVGKAPDQVPLFRGHTAQVLDTDFDPFNDHRIASGSDDSKIGIWDIPENYKFHDHVDEDGEPIDIKPVKFLTGHARKVGHVLYHPVAENVLASSSGDYTVKLWNVETGKDMITLKHPDMVTSMSFSYDGNYLATVARDKKLRVWNIREEKIVSEGPAHTGAKNQRVVWLGNSDRLATTGFSKLSDRQIGIWDAFNIEKGDLGGFYTVDQSSGILMPFYDEGNKILYLVGKGDGNIRYYEFQNDELFELSEFQSTEAQRGFAVAPKRMVNVKENEVLKGFKTVVDQRIEPVSFFVPRRSEEFQEDIYPDAPSNKPALTAEEWFSGKSVEGPILVSMRSIYDGSAPSFHEAKRPQQPTTQETALEEKKEQPKVEKPISESEKEVKQEAPKSPSPLKSASSSSTINHVLKEDNSINKLLKKSSDIDQVNNAEDPSRDTSGWEEADDEPAPIKIETPVTPTETKKDRTPKVEPSKELKPEPVSIATDRKQEQSLPQEEKSSEKTKSPEQEKSATPPSSITAAKTAITASSKEEPSAARTSPKSLGLKKSVEKLSTLVLQLEDVVDKLTKANLDKDERLLKLEQKIGELSK
B3: Abp1 actin nucleation promoting factor (protein, UniProt P15891 1-592)
chain: MALEPIDYTTHSREIDAEYLKIVRGSDPDTTWLIISPNAKKEYEPESTGSSFHDFLQLFDETKVQYGLARVSPPGSDVEKIIIIGWCPDSAPLKTRASFAANFAAVANNLFKGYHVQVTARDEDDLDENELLMKISNAAGARYSIQTSSKQQGKASTPPVKKSFTPSKSPAPVSKKEPVKTPSPAPAAKISSRVNDNNDDDDWNEPELKERDFDQAPLKPNQSSYKPIGKIDLQKVIAEEKAKEDPRLVQKPTAAGSKIDPSSDIANLKNESKLKRDSEFNSFLGTTKPPSMTESSLKNDDDKVIKGFRNEKSPAQLWAERKAKQNSGNAETKAEAPKPEVPEDEPEGEPDVKDLKSKFEGLAASEKEEEEMENKFAPPPKKSEPTIISPKPFSKPQEPVKAEEAEQPKTDYKKIGNPLPGMHIEADNEEEPEENDDDWDDDEDEAAQPPLPSRNVASGAPVQKEEPEQEEIAPSLPSRNSIPAPKQEEAPEQAPEEEIEEEAEEAAPQLPSRSSAAPPPPPRRATPEKKPKENPWATAEYDYDAAEDNELTFVENDKIINIEFVDDDWWLGELEKDGSKGLFPSNYVSLGN

Molecular target: Sup35 translation termination factor tagged at its C-terminus with a tandem affinity purification (TAP) tag (S. cerevisiae) (UniProt P05453)
Test: affinity purification with mass spectrometry; Sup35-TAP affinity-purified by TAP chromatography from [PIN+][psi-] wild-type and tsa1 tsa2 mutant strains grown for 20 hours; co-purifying proteins identified by LC-MS in triplicate, kept if found in at least two of three replicates

Row | Binder | binding
1 | B1 | binds
2 | B2 | binds
3 | B3 | binds
